# Experimental data published in publication doi:10.1101/2021.01.20.427402.
# Sequences of proteins named here, by UniProt entry; tags and fusion partners are left off.
# UniProt P35637: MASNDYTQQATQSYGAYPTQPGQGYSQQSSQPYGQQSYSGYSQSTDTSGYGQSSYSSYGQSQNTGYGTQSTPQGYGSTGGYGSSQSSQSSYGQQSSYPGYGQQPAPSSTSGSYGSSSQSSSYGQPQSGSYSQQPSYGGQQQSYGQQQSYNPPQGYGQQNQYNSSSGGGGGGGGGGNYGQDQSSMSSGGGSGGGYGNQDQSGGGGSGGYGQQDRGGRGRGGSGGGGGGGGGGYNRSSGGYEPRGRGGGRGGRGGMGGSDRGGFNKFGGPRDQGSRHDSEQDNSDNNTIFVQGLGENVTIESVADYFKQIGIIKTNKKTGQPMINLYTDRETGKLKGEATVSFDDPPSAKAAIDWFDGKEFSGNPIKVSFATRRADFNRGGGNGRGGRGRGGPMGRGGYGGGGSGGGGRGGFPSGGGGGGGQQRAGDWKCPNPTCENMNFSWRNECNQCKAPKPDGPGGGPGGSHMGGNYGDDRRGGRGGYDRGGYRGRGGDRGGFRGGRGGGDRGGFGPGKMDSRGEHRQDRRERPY
# Where two headings read alike, the source gives them in different places. No constants are given. Whether binding was seen depends on the method and setting. Binding seen in cells or lysates may run through a third protein. Some results given as binding are weak or reduced against the parent protein; the word gives no strength. Where a sequence is shown, tags or fusion partners need not be part of it.
# Assays:
# [1] = molecular target: T1, GFP-Zαβ^DAI fusion (amino-terminal region of human DAI, residues Ala2-Tyr165, with N-terminal LAP-tag) (human) (UniProt Q9H171); test: co-IP
# T1 sequence: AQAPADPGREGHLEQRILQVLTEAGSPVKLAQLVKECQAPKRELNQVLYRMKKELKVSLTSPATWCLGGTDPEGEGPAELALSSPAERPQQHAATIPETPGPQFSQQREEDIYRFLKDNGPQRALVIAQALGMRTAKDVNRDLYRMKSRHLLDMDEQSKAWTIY
# [2] = molecular target: T1, GFP-Zαβ^DAI fusion (amino-terminal region of human DAI, residues Ala2-Tyr165, with N-terminal LAP-tag) (human); test: co-IP; remark: listed apart in the source
substance,measurement,setting,value
FUS (from UniProt P35637 1-526),binding,[1],binds
same,binding,[2],binds
